# Laboratory results: the supplement of paper PMC4604168 (melanoma cell lines)
# The other results are listed elsewhere or left out. Single values are uncertain, as repeats are few or missing.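 The apoptosis fraction was the count of cleaved-PARP antibody-stained nuclei relative to all DNA-stained nuclei, imaged in 1,536-well plates. Screening doses were set so most cells survived, and baseline and induced cleaved-PARP levels vary greatly across cell lines.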
# Test system: SkMel28
# Test: cleaved PARP positive nuclei fraction relative to DMSO control; melanoma cells; higher = more apoptosis
# Conditions: library dose: low library concentration; 72 h
row,Structure (SMILES),cleaved PARP positive nuclei fraction
1,"Cc1cn(-c2cc(NC(=O)c3ccc(C)c(Nc4nccc(-c5cccnc5)n4)c3)cc(C(F)(F)F)c2)cn1 [nilotinib] + CN(c1ncccc1CNc1nc(Nc2ccc3c(c2)CC(=O)N3)ncc1C(F)(F)F)S(C)(=O)=O [PF562271] (first compound 0.2 µM, partner dose 0.08 µM)",164%
2,"CC[C@]1(O)C[C@H]2CN(CCc3c([nH]c4ccccc34)[C@@](C(=O)OC)(c3cc4c(cc3OC)N(C=O)[C@H]3[C@@](O)(C(=O)OC)[C@H](OC(C)=O)[C@]5(CC)C=CCN6CC[C@]43[C@@H]65)C2)C1 [vincristine] + COCC[n+]1c2c(n(Cc3cnccn3)c1C)C(=O)c1ccccc1C2=O [YM155] (first compound 0.0001 µM, partner dose 0.0004 µM)",94%
3,"Cc1cn(-c2cc(NC(=O)c3ccc(C)c(Nc4nccc(-c5cccnc5)n4)c3)cc(C(F)(F)F)c2)cn1 [nilotinib] + O=C(O)[C@@H]1[O][Sb](=[O])([O][Sb]2(=[O])[O][C@H]([C@H](O)CO)[C@H](O)[C@H](C(=O)O)[O]2)[O][C@H]([C@H](O)CO)[C@@H]1O [stibogluconate] (first compound 0.2 µM, partner dose 2 µM)",74.7%
4,"COc1cc([C@@H]2c3cc4c(cc3[C@@H](O[C@@H]3O[C@@H]5CO[C@@H](C)O[C@H]5[C@H](O)[C@H]3O)[C@H]3COC(=O)[C@H]23)OCO4)cc(OC)c1O [etoposide] + CCCCCCCCCCCCCCCCCCOP(=O)([O-])OC1CC[N+](C)(C)CC1 [Perifosine] (first compound 0.02 µM, partner dose 0.4 µM)",87.2%
5,"O=C(/C=C/c1cccnc1)NCCCCC1CCN(C(=O)c2ccccc2)CC1 + CS(=O)(=O)c1ccc(C(=O)Nc2ccc(Cl)c(-c3ccccn3)c2)c(Cl)c1 [vismodegib] (first compound 0.01 µM, partner dose 1 µM)",83%
6,"O=C(Nc1cc(C(F)(F)F)cc(C(F)(F)F)c1)c1cc(Cl)ccc1O + CCCCCCCCc1ccc(CCC(N)(CO)CO)cc1 [fingolimod] (first compound 0.016 µM, partner dose 2 µM)",85.1%
7,"CC[C@]1(O)C[C@H]2CN(CCc3c([nH]c4ccccc34)[C@@](C(=O)OC)(c3cc4c(cc3OC)N(C=O)[C@H]3[C@@](O)(C(=O)OC)[C@H](OC(C)=O)[C@]5(CC)C=CCN6CC[C@]43[C@@H]65)C2)C1 [vincristine] + CCCCCCCCCCCCCCCCCCOP(=O)([O-])OC1CC[N+](C)(C)CC1 [Perifosine] (first compound 0.0001 µM, partner dose 0.4 µM)",110%
8,"Cc1cc(Nc2cc(N3CCN(C)CC3)nc(Sc3ccc(NC(=O)C4CC4)cc3)n2)n[nH]1 [Tozasertib] + C#Cc1cccc(Nc2ncnc3cc(OCCOC)c(OCCOC)cc23)c1 [erlotinib] (first compound 0.006 µM, partner dose 0.8 µM)",75.2%
9,"Cc1cc(Nc2cc(N3CCN(C)CC3)nc(Sc3ccc(NC(=O)C4CC4)cc3)n2)n[nH]1 [Tozasertib] + CO[C@H]1C[C@@H]2CC[C@@H](C)[C@@](O)(O2)C(=O)C(=O)N2CCCC[C@H]2C(=O)O[C@H]([C@H](C)C[C@@H]2CC[C@@H](OCCO)[C@H](OC)C2)CC(=O)[C@H](C)/C=C(\C)[C@@H](O)[C@@H](OC)C(=O)[C@H](C)C[C@H](C)/C=C/C=C/C=C/1C [everolimus] (first compound 0.006 µM, partner dose 0.02 µM)",151%
10,"Cc1ccc(Nc2nccc(N(C)c3ccc4c(C)n(C)nc4c3)n2)cc1S(N)(=O)=O [Pazopanib] + C#Cc1cccc(Nc2ncnc3cc(OCCOC)c(OCCOC)cc23)c1 [erlotinib] (first compound 0.4 µM, partner dose 0.8 µM)",78.6%
11,"CCCCCCCCCCCCCCCCCCOP(=O)([O-])OC1CC[N+](C)(C)CC1 [Perifosine] + C=C(c1ccc(C(=O)O)cc1)c1cc2c(cc1C)C(C)(C)CCC2(C)C [Bexarotene] (first compound 0.4 µM, partner dose 2 µM)",105%
12,"O=c1[nH]nc(Sc2ncc([N+](=O)[O-])s2)n1-c1ccc2c(c1)OCCO2 + Cc1cc(Nc2cc(N3CCN(C)CC3)nc(/C=C/c3ccccc3)n2)n[nH]1 [ENMD2076] (first compound 0.2 µM, partner dose 0.04 µM)",73.5%
13,"CCCCCCCCCCCCCCCCCCOP(=O)([O-])OC1CC[N+](C)(C)CC1 [Perifosine] + Clc1ccc(Nc2nnc(Cc3ccncc3)c3ccccc23)cc1 [vatalanib] (first compound 0.4 µM, partner dose 2 µM)",80.2%
14,"Cc1cn(-c2cc(NC(=O)c3ccc(C)c(Nc4nccc(-c5cccnc5)n4)c3)cc(C(F)(F)F)c2)cn1 [nilotinib] + Cn1nnc2c(C(N)=O)ncn2c1=O [temozolomide] (first compound 0.2 µM, partner dose 2 µM)",85.5%
